Source: doi:10.1101/2025.01.08.631848
Results are given in words; binding and its absence hold for the method and conditions named. In cells and extracts the contact can be indirect. Some entries that bind do so weakly or less than the wild type.

By UniProt entry, the sequences of proteins in these tests, tags left out.
UniProt P35222: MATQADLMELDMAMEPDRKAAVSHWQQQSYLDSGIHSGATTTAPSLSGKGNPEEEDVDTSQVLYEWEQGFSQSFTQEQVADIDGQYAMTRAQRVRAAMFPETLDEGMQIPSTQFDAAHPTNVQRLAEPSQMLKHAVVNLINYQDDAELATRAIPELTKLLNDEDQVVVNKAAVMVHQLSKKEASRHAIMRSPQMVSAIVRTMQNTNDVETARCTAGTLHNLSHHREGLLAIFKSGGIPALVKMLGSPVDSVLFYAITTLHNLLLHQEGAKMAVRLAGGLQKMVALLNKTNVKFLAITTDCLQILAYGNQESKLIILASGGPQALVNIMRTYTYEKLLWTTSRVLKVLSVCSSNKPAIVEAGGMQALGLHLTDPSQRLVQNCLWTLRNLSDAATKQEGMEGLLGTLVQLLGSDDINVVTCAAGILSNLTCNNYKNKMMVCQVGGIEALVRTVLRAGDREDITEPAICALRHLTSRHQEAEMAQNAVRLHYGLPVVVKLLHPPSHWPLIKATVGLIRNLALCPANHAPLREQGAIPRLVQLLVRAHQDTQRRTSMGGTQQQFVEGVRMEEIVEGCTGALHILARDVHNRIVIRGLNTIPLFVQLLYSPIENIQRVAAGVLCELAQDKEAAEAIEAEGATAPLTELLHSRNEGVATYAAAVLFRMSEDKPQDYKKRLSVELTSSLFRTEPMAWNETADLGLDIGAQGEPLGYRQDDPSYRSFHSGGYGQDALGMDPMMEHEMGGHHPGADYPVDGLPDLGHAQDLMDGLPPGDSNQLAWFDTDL
UniProt Q96BN8: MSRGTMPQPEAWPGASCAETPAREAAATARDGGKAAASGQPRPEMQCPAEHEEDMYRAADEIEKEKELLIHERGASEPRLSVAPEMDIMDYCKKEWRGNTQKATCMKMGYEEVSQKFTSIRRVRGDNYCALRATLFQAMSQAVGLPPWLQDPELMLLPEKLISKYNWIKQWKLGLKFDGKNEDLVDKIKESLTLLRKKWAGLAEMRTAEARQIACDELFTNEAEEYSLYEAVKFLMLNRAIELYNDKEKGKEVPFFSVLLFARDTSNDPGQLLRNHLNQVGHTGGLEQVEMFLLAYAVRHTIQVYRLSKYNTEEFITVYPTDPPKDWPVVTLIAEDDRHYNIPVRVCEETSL

Biological target: β-catenin (human (endogenous in HaCaT)) (UniProt P35222)
Assay: co-IP

Row | Molecule | binding
1 | OTULIN (OTU DUB with linear linkage specificity) (from UniProt Q96BN8 1-352) (enzyme) | binds
2 | Shank Associated RH Domain Interacting protein (SHARPIN) (protein, UniProt Q9H0F6 1-387) MAPPAGGAAAAASDLGSAAVLLAVHAAVRPLGAGPDAEAQLRRLQLSADPERPGRFRLELLGAGPGAVNLEWPLESVSYTIRGPTQHELQPPPGGPGTLSLHFLNPQEAQRWAVLVRGATVEGQNGSKSNSPPALGPEACPVSLPSPPEASTLKGPPPEADLPRSPGNLTEREELAGSLARAIAGGDEKGAAQVAAVLAQHRVALSVQLQEACFPPGPIRLQVTLEDAASAASAASSAHVALQVHPHCTVAALQEQVFSELGFPPAVQRWVIGRCLCVPERSLASYGVRQDGDPAFLYLLSAPREAPATGPSPQHPQKMDGELGRLFPPSLGLPPGPQPAASSLPSPLQPSWSCPSCTFINAPDRPGCEMCSTQRPCTWDPLAAAST | binds
